# For at least one entry, the source does not settle the construct or the ends of the probe. At least one result comes from cells or an extract, where the contact may be indirect.
# Assays:
# [1] = tested on: AhR complex in Hepa 1c1c7 cytosol (Mus musculus); assay: EMSA; conditions: 20 nM TCDD, ligand dependent, 35 ug cytosol; protein in an extract; protein details: cytosolic extract of Hepa 1c1c7 cells; label: 32P end-label
# [2] = tested on: AhR complex in SCC cell cytosol (Homo sapiens); assay: EMSA; conditions: 20 nM TCDD, ligand dependent, 35 ug cytosol; protein in an extract; protein details: cytosolic extract of human SCC cells; label: 32P end-label
sequence,measurement,setting,value
TCGAGTAGATCACGCAATGGGCCCAGC / TCGAGCTGGGCCCATTGCGTGATCTAC [DRE3],binding result,[1],binds
same,binding result,[2],binds

# From patent publication US20050288488
